B1: Q96A33 (protein, UniProt Q96A33 1-483, looked up)
chain: MKAFHTFCVVLLVFGSVSEAKFDDFEDEEDIVEYDDNDFAEFEDVMEDSVTESPQRVIITEDDEDETTVELEGQDENQEGDFEDADTQEGDTESEPYDDEEFEGYEDKPDTSSSKNKDPITIVDVPAHLQNSWESYYLEILMVTGLLAYIMNYIIGKNKNSRLAQAWFNTHRELLESNFTLVGDDGTNKEATSTGKLNQENEHIYNLWCSGRVCCEGMLIQLRFLKRQDLLNVLARMMRPVSDQVQIKVTMNDEDMDTYVFAVGTRKALVRLQKEMQDLSEFCSDKPKSGAKYGLPDSLAILSEMGEVTDGMMDTKMVHFLTHYADKIESVHFSDQFSGPKIMQEEGQPLKLPDTKRTLLFTFNVPGSGNTYPKDMEALLPLMNMVIYSIDKAKKFRLNREGKQKADKNRARVEENFLKLTHVQRQEAAQSRREEKKRAEKERIMNEEDPEKQRRLEEAALRREQKKLEKKQMKMKQIKVKAM
modifications: full-length
B2: Q03591 (protein, UniProt Q03591 1-330, looked up)
chain: MWLLVSVILISRISSVGGEATFCDFPKINHGILYDEEKYKPFSQVPTGEVFYYSCEYNFVSPSKSFWTRITCTEEGWSPTPKCLRLCFFPFVENGHSESSGQTHLEGDTVQIICNTGYRLQNNENNISCVERGWSTPPKCRSTDTSCVNPPTVQNAHILSRQMSKYPSGERVRYECRSPYEMFGDEEVMCLNGNWTEPPQCKDSTGKCGPPPPIDNGDITSFPLSVYAPASSVEYQCQNLYQLEGNKRITCRNGQWSEPPKCLHPCVISREIMENYNIALRWTAKQKLYLRTGESAEFVCKRGYRLSSRSHTLRTTCWDGKLEYPTCAKR
modifications: full-length
B3: P25325 (protein, UniProt P25325 1-297, looked up)
chain: MASPQLCRALVSAQWVAEALRAPRAGQPLQLLDASWYLPKLGRDARREFEERHIPGAAFFDIDQCSDRTSPYDHMLPGAEHFAEYAGRLGVGAATHVVIYDASDQGLYSAPRVWWMFRAFGHHAVSLLDGGLRHWLRQNLPLSSGKSQPAPAEFRAQLDPAFIKTYEDIKENLESRRFQVVDSRATGRFRGTEPEPRDGIEPGHIPGTVNIPFTDFLSQEGLEKSPEEIRHLFQEKKVDLSKPLVATCGSGVTACHVALGAYLCGKPDVPIYDGSWVEWYMRARPEDVISEGRGKTH
modifications: full-length
B4: P14927 (protein, UniProt P14927 1-111, looked up)
chain: MAGKQAVSASGKWLDGIRKWYYNAAGFNKLGLMRDDTIYEDEDVKEAIRRLPENLYNDRMFRIKRALDLNLKHQILPKEQWTKYEEENFYLEPYLKEVIRERKEREEWAKK
modifications: full-length
B5: P47985 (protein, UniProt P47985 1-274, looked up)
chain: MLSVASRSGPFAPVLSATSRGVAGALRPLVQATVPATPEQPVLDLKRPFLSRESLSGQAVRRPLVASVGLNVPASVCYSHTDIKVPDFSEYRRLEVLDSTKSSRESSEARKGFSYLVTGVTTVGVAYAAKNAVTQFVSSMSASADVLALAKIEIKLSDIPEGKNMAFKWRGKPLFVRHRTQKEIEQEAAVELSQLRDPQHDLDRVKKPEWVILIGVCTHLGCVPIANAGDFGGYYCPCHGSHYDASGRIRLGPAPLNLEVPTYEFTSDDMVIVG
modifications: full-length
B6: Q5JTJ3 (protein, UniProt Q5JTJ3 1-125, looked up)
chain: MGPGGPLLSPSRGFLLCKTGWHSNRLLGDCGPHTPVSTALSFIAVGMAAPSMKERQVCWGARDEYWKCLDENLEDASQCKKLRSSFESSCPQQWIKYFDKRRDYLKFKEKFEAGQFEPSETTAKS
modifications: full-length
B7: Q9UKG1 (protein, UniProt Q9UKG1 1-709, looked up)
chain: MPGIDKLPIEETLEDSPQTRSLLGVFEEDATAISNYMNQLYQAMHRIYDAQNELSAATHLTSKLLKEYEKQRFPLGGDDEVMSSTLQQFSKVIDELSSCHAVLSTQLADAMMFPITQFKERDLKEILTLKEVFQIASNDHDAAINRYSRLSKKRENDKVKYEVTEDVYTSRKKQHQTMMHYFCALNTLQYKKKIALLEPLLGYMQAQISFFKMGSENLNEQLEEFLANIGTSVQNVRREMDSDIETMQQTIEDLEVASDPLYVPDPDPTKFPVNRNLTRKAGYLNARNKTGLVSSTWDRQFYFTQGGNLMSQARGDVAGGLAMDIDNCSVMAVDCEDRRYCFQITSFDGKKSSILQAESKKDHEEWICTINNISKQIYLSENPEETAARVNQSALEAVTPSPSFQQRHESLRPAAGQSRPPTARTSSSGSLGSESTNLAALSLDSLVAPDTPIQFDIISPVCEDQPGQAKAFGQGGRRTNPFGESGGSTKSETEDSILHQLFIVRFLGSMEVKSDDHPDVVYETMRQILAARAIHNIFRMTESHLLVTCDCLKLIDPQTQVTRLTFPLPCVVLYATHQENKRLFGFVLRTSSGRSESNLSSVCYIFESNNEGEKICDSVGLAKQIALHAELDRRASEKQKEIERVKEKQQKELNKQKQIEKDLEEQSRLIAASSRPNQASSEGQFVVLSSSQSEESDLGEGGKKRESEA
modifications: full-length
B8: Q8NFT8 (protein, UniProt Q8NFT8 1-737, looked up)
chain: MQPRRAQAPGAQLLPALALLLLLLGAGPRGSSLANPVPAAPLSAPGPCAAQPCRNGGVCTSRPEPDPQHPAPAGEPGYSCTCPAGISGANCQLVADPCASNPCHHGNCSSSSSSSSDGYLCICNEGYEGPNCEQALPSLPATGWTESMAPRQLQPVPATQEPDKILPRSQATVTLPTWQPKTGQKVVEMKWDQVEVIPDIACGNASSNSSAGGRLVSFEVPQNTSVKIRQDATASLILLWKVTATGFQQCSLIDGRSVTPLQASGGLVLLEEMLALGNNHFIGFVNDSVTKSIVALRLTLVVKVSTCVPGESHANDLECSGKGKCTTKPSEATFSCTCEEQYVGTFCEEYDACQRKPCQNNASCIDANEKQDGSNFTCVCLPGYTGELCQSKIDYCILDPCRNGATCISSLSGFTCQCPEGYFGSACEEKVDPCASSPCQNNGTCYVDGVHFTCNCSPGFTGPTCAQLIDFCALSPCAHGTCRSVGTSYKCLCDPGYHGLYCEEEYNECLSAPCLNAATCRDLVNGYECVCLAEYKGTHCELYKDPCANVSCLNGATCDSDGLNGTCICAPGFTGEECDIDINECDSNPCHHGGSCLDQPNGYNCHCPHGWVGANCEIHLQWKSGHMAESLTNMPRHSLYIIIGALCVAFILMLIILIVGICRISRIEYQGSSRPAYEEFYNCRSIDSEFSNAIASIRHARFGKKSRPAMYDVSPIAYEDYSPDDKPLVTLIKTKDL
modifications: full-length
B9: Q08495 (protein, UniProt Q08495 1-405, looked up)
chain: MERLQKQPLTSPGSVSPSRDSSVPGSPSSIVAKMDNQVLGYKDLAAIPKDKAILDIERPDLMIYEPHFTYSLLEHVELPRSRERSLSPKSTSPPPSPEVWADSRSPGIISQASAPRTTGTPRTSLPHFHHPETSRPDSNIYKKPPIYKQRESVGGSPQTKHLIEDLIIESSKFPAAQPPDPNQPAKIETDYWPCPPSLAVVETEWRKRKASRRGAEEEEEEEDDDSGEEMKALRERQREELSKVTSNLGKMILKEEMEKSLPIRRKTRSLPDRTPFHTSLHQGTSKSSSLPAYGRTTLSRLQSTEFSPSGSETGSPGLQNGEGQRGRMDRGNSLPCVLEQKIYPYEMLVVTNKGRTKLPPGVDRMRLERHLSAEDFSRVFAMSPEEFGKLALWKRNELKKKASLF
modifications: full-length
B10: P60981 (protein, UniProt P60981 1-165, looked up)
chain: MASGVQVADEVCRIFYDMKVRKCSTPEEIKKRKKAVIFCLSADKKCIIVEEGKEILVGDVGVTITDPFKHFVGMLPEKDCRYALYDASFETKESRKEELMFFLWAPELAPLKSKMIYASSKDAIKKKFQGIKHECQANGPEDLNRACIAEKLGGSLIVAFEGCPV
modifications: full-length
B11: Q9BPU6 (protein, UniProt Q9BPU6 1-564, looked up)
chain: MLANSASVRILIKGGKVVNDDCTHEADVYIENGIIQQVGRELMIPGGAKVIDATGKLVIPGGIDTSTHFHQTFMNATCVDDFYHGTKAALVGGTTMIIGHVLPDKETSLVDAYEKCRGLADPKVCCDYALHVGITWWAPKVKAEMETLVREKGVNSFQMFMTYKDLYMLRDSELYQVLHACKDIGAIARVHAENGELVAEGAKEALDLGITGPEGIEISRPEELEAEATHRVITIANRTHCPIYLVNVSSISAGDVIAAAKMQGKVVLAETTTAHATLTGLHYYHQDWSHAAAYVTVPPLRLDTNTSTYLMSLLANDTLNIVASDHRPFTTKQKAMGKEDFTKIPHGVSGVQDRMSVIWERGVVGGKMDENRFVAVTSSNAAKLLNLYPRKGRIIPGADADVVVWDPEATKTISASTQVQGGDFNLYENMRCHGVPLVTISRGRVVYENGVFMCAEGTGKFCPLRSFPDTVYKKLVQREKTLKVRGVDRTPYLGDVAVVVHPGKKEMGTPLADTPTRPVTRHGGMRDLHESSFSLSGSQIDDHVPKRASARILAPPGGRSSGIW
modifications: full-length
B12: O00273 (protein, UniProt O00273 1-331, looked up)
chain: MEVTGDAGVPESGEIRTLKPCLLRRNYSREQHGVAASCLEDLRSKACDILAIDKSLTPVTLVLAEDGTIVDDDDYFLCLPSNTKFVALASNEKWAYNNSDGGTAWISQESFDVDETDSGAGLKWKNVARQLKEDLSSIILLSEEDLQMLVDAPCSDLAQELRQSCATVQRLQHTLQQVLDQREEVRQSKQLLQLYLQALEKEGSLLSKQEESKAAFGEEVDAVDTGISRETSSDVALASHILTALREKQAPELSLSSQDLELVTKEDPKALAVALNWDIKKTETVQEACERELALRLQQTQSLHSLRSISASKASPPGDLQNPKRARQDPT
modifications: full-length
B13: Q13217 (protein, UniProt Q13217 1-504, looked up)
chain: MVAPGSVTSRLGSVFPFLLVLVDLQYEGAECGVNADVEKHLELGKKLLAAGQLADALSQFHAAVDGDPDNYIAYYRRATVFLAMGKSKAALPDLTKVIQLKMDFTAARLQRGHLLLKQGKLDEAEDDFKKVLKSNPSENEEKEAQSQLIKSDEMQRLRSQALNAFGSGDYTAAIAFLDKILEVCVWDAELRELRAECFIKEGEPRKAISDLKAASKLKNDNTEAFYKISTLYYQLGDHELSLSEVRECLKLDQDHKRCFAHYKQVKKLNKLIESAEELIRDGRYTDATSKYESVMKTEPSIAEYTVRSKERICHCFSKDEKPVEAIRVCSEVLQMEPDNVNALKDRAEAYLIEEMYDEAIQDYETAQEHNENDQQIREGLEKAQRLLKQSQKRDYYKILGVKRNAKKQEIIKAYRKLALQWHPDNFQNEEEKKKAEKKFIDIAAAKEVLSDPEMRKKFDDGEDPLDAESQQGGGGNPFHRSWNSWQGFNPFSSGGPFRFKFHFN
modifications: full-length
B14: Q9P0K9 (protein, UniProt Q9P0K9 1-293, looked up)
chain: MARPPRQHPGVWASLLLLLLTGPAACAASPADDGAGPGGRGPRGRARGDTGADEAVPRHDSSYGTFAGEFYDLRYLSEEGYPFPTAPPVDPFAKIKVDDCGKTKGCFRYGKPGCNAETCDYFLSYRMIGADVEFELSADTDGWVAVGFSSDKKMGGDDVMACVHDDNGRVRIQHFYNVGQWAKEIQRNPARDEEGVFENNRVTCRFKRPVNVPRDETIVDLHLSWYYLFAWGPAIQGSITRHDIDSPPASERVVSIYKYEDIFMPSAAYQTFSSPFCLLLIVALTFYLLMGTP
modifications: full-length

Assay: TMTcalibrator quantification of regulated proteins in AD CSF versus control
Parameters: species or system human
Conditions: CSF of AD patient versus control; non-modified peptides of each protein summed for three control and three AD cases

Molecule	Log2 AD/Control
B1	0.79
B2	−0.67
B3	0.81
B4	0.98
B5	1.13
B6	1.23
B7	0.79
B8	1.02
B9	0.76
B10	0.93
B11	0.82
B12	−0.67
B13	0.86
B14	1.48

Reference: patent US12419871B2, “Biomolecules involved in Alzheimer's disease” (ELECTROPHORETICS LIMITED, priority 2015, dated 2025)
